doi:10.1101/293530
No constants are given. Whether binding was seen depends on the method and setting. In cells and extracts the contact can be indirect.

Protein sequences, listed by entry. Tags and fused reporters are not part of them. Lines headed by an entry give the natural chain unless they say otherwise; changes in a name come on top. Chains listed by the source or under a name are the forms on record and can include a tag or linker.
CD95-mGFP and CD95-mCherry (P25445, form named): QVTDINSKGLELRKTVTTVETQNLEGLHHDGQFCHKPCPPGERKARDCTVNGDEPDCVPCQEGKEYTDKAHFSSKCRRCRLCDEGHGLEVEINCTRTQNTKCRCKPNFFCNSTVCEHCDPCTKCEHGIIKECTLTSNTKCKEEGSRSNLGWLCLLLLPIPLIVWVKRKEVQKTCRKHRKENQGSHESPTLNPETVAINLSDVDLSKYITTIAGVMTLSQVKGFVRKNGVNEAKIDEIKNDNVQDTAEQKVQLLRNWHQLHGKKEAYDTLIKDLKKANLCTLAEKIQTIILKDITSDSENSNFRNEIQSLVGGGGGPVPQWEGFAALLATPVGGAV

Target: CD95-mGFP and CD95-mCherry (human) (UniProt P25445)
Experiment: FRET or BRET

CD95-mGFP and CD95-mCherry (from UniProt P25445 26-335) (receptor)
binding: no binding
